Strings that start with PEPTIDE1 are HELM notation: dots part the residues, brackets hold end groups and non-standard residues. Numbered stars: 1 amine (or outer) side, 2 acyl side, 3 side chain; on linkers, the order of the positions; unused ones are H or OH. Bridge positions count the residues as written; N and C are the ends. Square brackets hold non-standard residues; d marks the D form. CH2 = C([*:1])[*:2]
Experiment: general procedure: Fmoc solid-phase peptide synthesis; Rink Amide resin LL MBHA (NovaBioChem, 0.33 mmol/g); Knorr Amide MBHA Resin for tracer; DIC/Oxyma Pure; HATU with NMM for tracer
Conditions: cyclisation step, UPLC, 220 nm

Row | Substance | final HPLC purity [%]
1 | 5-FAM-labeled analog of Pro13Lys MP-1687 | 95.3

Same assay, conditions: whole synthesis, UPLC, UV 220 nm (stated for tracer)

Row | Substance | final purity (method not given) [%]
2 | Ac-K(N3)-RR-cyclo(c(methylene)PLYISYDPV-hC)-RR-NH2 | 81.4
3 | Ac-K(N3)-RRRR-cyclo(C(methylene)PLYISYDPVC)-RRRR-NH2 | 90.2
4 | Ac-K(N3)-RRRR-cyclo(c(methylene)PLYISYDPVC)-RRRR-NH2 | 95.3
5 | Ac-K(N3)-RRRR-cyclo(dPLYISYDPV-Dap)-RRRR-NH2 | 93.0
6 | Ac-K(N3)-rrrr-cyclo(c(methylene)PLYISYDPVC)-rrrr-NH2 | 95.1
7 | Ac-RR-cyclo(c(methylene)ALYISYDPVC)-RR-NH2 | 95.7
8 | Ac-RR-cyclo(c(methylene)PLAISYDPVC)-RR-NH2 | 95.0
9 | Ac-RR-cyclo(c(methylene)PLYASYDPVC)-RR-NH2 | 94.2
10 | Ac-RR-cyclo(c(methylene)PLYIAYDPVC)-RR-NH2 | 96.0
11 | Ac-RR-cyclo(c(methylene)PLYISADPVC)-RR-NH2 | 95.9
12 | Ac-RR-cyclo(c(methylene)PLYISYAPVC)-RR-NH2 | 96.5
13 | Ac-RR-cyclo(c(methylene)PLYISYDAVC)-RR-NH2 | 94.8
14 | Ac-RR-cyclo(c(methylene)PLYISYDPAC)-RR-NH2 | 96.9
15 | Ac-RR[dC]PAYISYDPVCRR-NH2 (linker 3-13 via CH2) | 90.3
16 | Ac-rrrr-cyclo(c(methylene)plyisydpvc)-rrrr-NH2 | 95.3
17 | PEPTIDE1{[ac].[XKaz].R.R.R.R.[XAspL].P.L.Y.I.S.Y.D.P.V.[XDap].R.R.R.R.[am]}$PEPTIDE1,PEPTIDE1,7:R3-17:R3$$$V2.0 | 92.3
18 | PEPTIDE1{[ac].[XKaz].R.R.[XCysMD].P.L.Y.I.S.Y.D.P.V.C.R.R.[am]}$PEPTIDE1,PEPTIDE1,5:R3-15:R3$$$V2.0 | 96.9
19 | PEPTIDE1{[ac].[XKaz].[dR].[dR].[dR].[dR].[XCysMD].P.L.Y.I.[XaMeS].Y.D.P.V.C.[dR].[dR].[dR].[dR].[am]}$PEPTIDE1,PEPTIDE1,7:R3-17:R3$$$V2.0 | 98.0

From PMC8672774 (Chemical Science, 2021)
